Reference: paper PMC11815680, “Receptor-independent regulation of Gα13 by alpha-1-antitrypsin C-terminal peptides” (The Journal of Biological Chemistry, 2024)
Results are given in words; binding and its absence hold for the method and conditions named. Tags and fused reporters may be left off the sequences shown.

Columns and labels:
[1] = molecular target: T1, GST-LARG-RH (human LARG amino acid residues 319-598) (human) (UniProt Q9NZN5); test: condition: only GDP with mAAT-C_(18-35), without AlF4^-; pull-down; as a2 but buffer A with 10 μM GDP and mAAT-C_(18-35) added instead of AlF4^-; both purified
T1 sequence: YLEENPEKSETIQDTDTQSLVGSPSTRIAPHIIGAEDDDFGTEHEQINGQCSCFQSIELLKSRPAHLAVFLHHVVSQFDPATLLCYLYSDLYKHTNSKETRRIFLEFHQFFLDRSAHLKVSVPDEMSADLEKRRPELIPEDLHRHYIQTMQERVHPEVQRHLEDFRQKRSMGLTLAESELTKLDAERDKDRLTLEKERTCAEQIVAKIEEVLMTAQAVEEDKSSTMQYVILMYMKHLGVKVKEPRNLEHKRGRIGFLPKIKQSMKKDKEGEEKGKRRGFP

[2] = molecular target: T2, GST-p115-RH (human p115RhoGEF amino acid residues 1-252, N-terminal region including the RH domain) (human) (UniProt Q92888); test: as above
T2 sequence: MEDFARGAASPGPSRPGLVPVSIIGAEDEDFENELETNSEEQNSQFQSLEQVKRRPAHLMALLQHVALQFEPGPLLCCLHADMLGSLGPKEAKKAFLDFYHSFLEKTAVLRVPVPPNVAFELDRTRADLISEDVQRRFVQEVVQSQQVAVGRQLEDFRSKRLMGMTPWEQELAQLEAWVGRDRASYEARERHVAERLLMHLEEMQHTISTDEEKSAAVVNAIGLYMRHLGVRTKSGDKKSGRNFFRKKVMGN

[3] = molecular target: T3, GST-p115-RH(42-252), the RGS box of p115-RhoGEF-RH which lacks the N-terminal extension (human) (UniProt Q92888); test: condition: only GDP with mAAT-C_(1-17)F11A, without AlF4^-; pull-down; as a2 but buffer A with 10 μM GDP and mAAT-C_(1-17)F11A added instead of AlF4^-; both purified
T3 sequence: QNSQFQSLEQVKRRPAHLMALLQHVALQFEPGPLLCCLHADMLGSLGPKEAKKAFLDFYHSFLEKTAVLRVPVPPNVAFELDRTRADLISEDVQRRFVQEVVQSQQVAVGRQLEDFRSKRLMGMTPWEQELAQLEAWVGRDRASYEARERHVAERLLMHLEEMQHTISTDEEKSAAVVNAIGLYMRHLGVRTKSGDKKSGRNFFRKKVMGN

[4] = molecular target: T1, GST-LARG-RH (human LARG amino acid residues 319-598) (human); test: condition: only GDP alone, without AlF4^- or mAAT-C peptide; pull-down; as a2 but GDP alone: buffer A with 10 μM GDP, without AlF4^- and without peptide; both purified
[5] = molecular target: T2, GST-p115-RH (human p115RhoGEF amino acid residues 1-252, N-terminal region including the RH domain) (human); test: as above

binding [1]: no binding | binding [2]: no binding | binding [3]: no binding | binding [4]: no binding | binding [5]: no binding
B1: untagged Gα13iN recombinant protein (GDP-bound) (other, rat | mouse, UniProt P10824 1-28, looked up)
chain: MGCTLSAEDKAAVERSKMIDRNLREDGERLVKILLLGAGESGKSTFLKQMRIIHGQDFDQRAREEFRPTIYSNVIKGMRVLVDAREKLHIPWGDNKNQLHGDKLMAFDTRAPMAAQGMVETRVFLQYLPAIRALWEDSGIQNAYDRRREFQLGESVKYFLDNLDKLGVPDYIPSQQDILLARRPTKGIHEYDFEIKNVPFKMVDVGGQRSERKRWFECFDSVTSILFLVSSSEFDQVLMEDRQTNRLTESLNIFETIVNNRVFSNVSIILFLNKTDLLEEKVQVVSIKDYFLEFEGDPHCLRDVQKFLVECFRGKRRDQQQRPLYHHFTTAINTENIRLVFRDVKDTILHDNLKQLMLQ
notes: N-terminal region (αN helix) of rat Gαi1, amino acid residues 1-28; A few vector residues are likely left after PreScission cleavage of the pGEX-6P-1 product (surmise); also called Gα13iN・GDP; Gα13・GDP; source: E. coli BL21[DE3], purified (glutathione-sepharose 4B, cut off the column with PreScission Protease, dialysed; GDP added to 10 μM)
